Test results taken from patent US20140017253A1.
These are yes or no findings as the source states them, for the method shown. Some entries that bind do so weakly or less than the wild type. Sequences can lack the tags named with a protein.

The chains behind the UniProt entries cited, without tags or fusion partners. Where a name states a change or a piece, a line headed by the entry shows the natural chain unless it says otherwise.
UniProt O75473: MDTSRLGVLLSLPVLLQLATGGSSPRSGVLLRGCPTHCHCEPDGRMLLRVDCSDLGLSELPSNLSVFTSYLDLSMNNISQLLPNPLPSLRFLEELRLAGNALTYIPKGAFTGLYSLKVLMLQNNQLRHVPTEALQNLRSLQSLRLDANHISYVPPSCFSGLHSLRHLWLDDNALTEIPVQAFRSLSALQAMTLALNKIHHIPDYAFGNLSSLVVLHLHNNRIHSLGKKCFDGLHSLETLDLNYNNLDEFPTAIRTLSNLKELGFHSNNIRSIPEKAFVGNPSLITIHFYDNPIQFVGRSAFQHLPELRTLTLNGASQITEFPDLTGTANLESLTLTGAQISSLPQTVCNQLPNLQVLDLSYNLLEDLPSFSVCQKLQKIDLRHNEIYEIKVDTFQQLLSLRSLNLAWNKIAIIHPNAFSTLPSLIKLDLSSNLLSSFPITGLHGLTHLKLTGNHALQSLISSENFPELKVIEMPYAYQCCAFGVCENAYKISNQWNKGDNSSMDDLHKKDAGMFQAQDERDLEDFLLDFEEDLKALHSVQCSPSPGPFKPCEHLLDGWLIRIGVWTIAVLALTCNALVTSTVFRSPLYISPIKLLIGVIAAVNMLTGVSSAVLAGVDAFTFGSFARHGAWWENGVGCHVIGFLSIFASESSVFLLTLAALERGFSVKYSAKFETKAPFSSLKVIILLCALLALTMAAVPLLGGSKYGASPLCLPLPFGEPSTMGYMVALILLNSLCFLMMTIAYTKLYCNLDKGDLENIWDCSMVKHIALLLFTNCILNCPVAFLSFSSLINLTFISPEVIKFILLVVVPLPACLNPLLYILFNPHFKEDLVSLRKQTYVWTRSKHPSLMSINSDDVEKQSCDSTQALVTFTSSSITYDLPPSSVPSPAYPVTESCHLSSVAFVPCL

Target: T1, FLAG-LGR5-CD4TM-GFP (cell surface human LGR5 on transfected HEK-293 cells) (human) (UniProt O75473+P01730)
T1 sequence: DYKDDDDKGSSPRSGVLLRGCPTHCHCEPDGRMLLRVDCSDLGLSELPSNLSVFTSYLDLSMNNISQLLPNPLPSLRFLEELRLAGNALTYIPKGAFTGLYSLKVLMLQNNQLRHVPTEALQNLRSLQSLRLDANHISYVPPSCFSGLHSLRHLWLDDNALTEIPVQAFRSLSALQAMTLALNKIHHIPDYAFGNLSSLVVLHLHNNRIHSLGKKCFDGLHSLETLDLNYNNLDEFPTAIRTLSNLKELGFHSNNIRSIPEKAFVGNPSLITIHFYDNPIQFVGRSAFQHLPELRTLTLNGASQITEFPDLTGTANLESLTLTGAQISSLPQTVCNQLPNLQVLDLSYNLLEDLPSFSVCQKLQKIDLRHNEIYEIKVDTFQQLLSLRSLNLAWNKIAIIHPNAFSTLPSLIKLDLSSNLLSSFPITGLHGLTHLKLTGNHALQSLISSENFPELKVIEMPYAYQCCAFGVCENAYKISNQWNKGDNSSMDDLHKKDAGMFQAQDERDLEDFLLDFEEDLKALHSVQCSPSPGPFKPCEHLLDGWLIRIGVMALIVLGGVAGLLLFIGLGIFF
Assay: FACS on HEK-293T cells transfected with FLAG-LGR5-CD4TM-GFP; 10 nM RSPO3-biotin without antibody, detected with PE-conjugated streptavidin

binding: binds
B1: recombinant RSPO3-biotin fusion protein (ligand, UniProt Q9BXY4 22-272, looked up)
chain: QNASRGRRQRRMHPNVSQGCQGGCATCSDYNGCLSCKPRLFFALERIGMKQIGVCLSSCPSGYYGTRYPDINKCTKCKADCDTCFNKNFCTKCKSGFYLHLGKCLDNCPEGLEANNHTMECVSIVHCEVSEWNPWSPCTKKGKTCGFKRGTETRVREIIQHPSAKGNLCPPTNETRKCTVQRKKCQKGERGKKGRERKRKKPNKGESKEAIPDSKSLESSKEIPEQRENKQQQKKRKVQDKQKSVSVSTVH
modifications: biotin (site and way of attachment not stated)
